From PubChem BioAssay AID194 (DTP/NCI, 2004)
The list shows only some results of the screen, not a fair sample: it gathers tests that were run many times, whatever their T/C, doses with no T/C, and many T/C values between a quarter and a half above the control. Further doses and runs are listed elsewhere. T/C is the treated group as % of the vehicle group. Some doses have a count of surviving animals in place of a T/C: the source files T/C as zero there, which appears to mark a toxic dose or a test without result, not a measured value. Some survivor counts are full or nearly so, which does not show that the dose was tolerated: the source hardly ever lists a survival T/C far under the control, and the zero likely stands for such cases as well. Survivors were counted at the toxicity check, usually on the fifth day, unless a day is given; later deaths do not show. Schedules are NCI's codes, read here as Q, the interval in days (D) or hours (H), X, the number of doses. Some entries were tested several times; the results are listed from low to high. Some molecules as drawn cover several salts, stereoisomers or complexes of the source; a dose is that of the sample tested. For survival time, this PubChem deposit counts one and a half times the control or more as active, and values a quarter to a half above the control carry no call in these data; other NCI protocols may use other cut-offs. Additions like (4×) say how often a value occurs here. Some T/C values carry the count of animals alive at the toxicity check (mostly the fifth day); where none is given, no animal had died by that day.

System: BDF1 mice, B16 melanoma s.c., survival/tumor T/C
Assay: NCI In Vivo Anticancer Drug Screen. Data for tumor model B16 Melanoma (subcutaneous) in B6D2F1 (BDF1) mice
Conditions: T/C endpoint: median survival time, higher T/C = longer survival
Procedure: The antitumor activity of compounds was measured in mice bearing transplantable tumors. Survival or tumor size were measured and the results are expressed as the measurement made in the treated group (T) divided by the measurement made in the vehicle treated control group (C). The tumor model used in this assay is B16 Melanoma (subcutaneous) in B6D2F1 (BDF1) mice

[1] = dose: 12.5 mg/kg/injection, schedule: Q01DX009 (ip), vehicle: Klucel (hydroxypropylcellulose) (HPC)
[2] = dose: 25.0 mg/kg/injection, schedule: Q01DX009 (ip), vehicle: Klucel (hydroxypropylcellulose) (HPC)
[3] = dose: 50.0 mg/kg/injection, schedule: Q01DX009 (ip), vehicle: Klucel (hydroxypropylcellulose) (HPC)
[4] = dose: 16.0 mg/kg/injection, schedule: Q02DX009 (ip), vehicle: Klucel (hydroxypropylcellulose) (HPC)

For O=NN(CCCl)C(=O)NC1CCC(=O)NC1=O (stereo not given), the T/C (dose: 1.0 mg/kg/injection, schedule: Q01DX009 (ip), vehicle: Klucel (hydroxypropylcellulose) (HPC)) was 145 % of control, the T/C (dose: 2.59 mg/kg/injection, schedule: Q01DX007 (ip), vehicle: Klucel (hydroxypropylcellulose) (HPC)) was 132 % of control [9 of 10 alive on day 55] and the survivor count (dose: 12.0 mg/kg/injection, schedule: Q01DX007 (ip), vehicle: Klucel (hydroxypropylcellulose) (HPC)) was 1 of 10 on day 55. The survivor count (dose: 31.0 mg/kg/injection, schedule: Q01DX001 (ip), vehicle: gum acacia) was 5 of 10.

With C[n+]1c2ccccc2c(Nc2ccc(NS(=O)(=O)CCCCN=C(N)N)cc2)c2ccc(N)cc21 the T/C (dose: 0.75 mg/kg/injection, schedule: Q01DX009 (sc), vehicle: saline) was 136 % of control and the survivor count (dose: 12.0 mg/kg/injection, schedule: Q01DX009 (sc), vehicle: saline) was 10 of 10.

In the case of CC1(C)N=C(N)N=C(N)N1c1ccc(CCCCc2ccc(Cl)c(S(=O)(=O)F)c2)c(Cl)c1, the survivor count (dose: 40.0 mg/kg/injection, schedule: Q01DX009 (ip), vehicle: saline) was 1 of 6.

CN(Cc1cnc2nc(N)nc(N)c2n1)c1c(Cl)cc(C(=O)NC(CCC(=O)O)C(=O)O)cc1Cl (stereo not given) was tested, and the survivor count (dose: 1350.0 mg/kg/injection, schedule: Q04DX003 (ip), vehicle: sodium bicarbonate) was 8 of 10 and the survivor count (dose: 1500.0 mg/kg/injection, schedule: Q01DX001 (ip), vehicle: sodium bicarbonate) was 6 of 10.

For CS(=O)(=O)OCCCCOS(C)(=O)=O, the survivor count [1] was 6 of 6, the T/C [2] was 101, 111, 114 % of control (2×) and the survivor count [2] was 6 of 6. The T/C [3] was 102, 104, 126 % of control, the survivor count [3] was 5 of 6 and 6 of 6 and the survivor count (dose: 100.0 mg/kg/injection, schedule: Q01DX009 (ip), vehicle: Klucel (hydroxypropylcellulose) (HPC)) was 0 of 6, 1 of 6, 2 of 6. The survivor count (dose: 100.0 mg/kg/injection, schedule: Q01DX009 (ip), vehicle: saline with Tween-80) was 2 of 6, the survivor count (dose: 200.0 mg/kg/injection, schedule: Q01DX009 (ip), vehicle: Klucel (hydroxypropylcellulose) (HPC)) was 0 of 6 and the survivor count (dose: 200.0 mg/kg/injection, schedule: Q01DX009 (ip), vehicle: saline with Tween-80) was 0 of 6.

FC(F)c1nc2nc(Cl)c(Cl)nc2[nH]1 was tested, and the T/C (dose: 4.0 mg/kg/injection, schedule: Q01DX009 (ip), vehicle: other) was 133 % of control, the survivor count (dose: 64.0 mg/kg/injection, schedule: Q01DX009 (ip), vehicle: other) was 7 of 8 and the survivor count (dose: 128.0 mg/kg/injection, schedule: Q01DX009 (ip), vehicle: other) was 0 of 8.

With Cc1cc(NC(=O)NCc2ccc(N3C(N)=NC(N)=NC3(C)C)cc2)ccc1S(=O)(=O)F the T/C (dose: 25.0 mg/kg/injection, schedule: Q04DX003 (ip), vehicle: saline) was 125 % of control, the T/C (dose: 200.0 mg/kg/injection, schedule: Q04DX003 (ip), vehicle: saline) was 147 % of control and the survivor count (dose: 400.0 mg/kg/injection, schedule: Q04DX003 (ip), vehicle: saline) was 6 of 6.

In the case of CCO/C=C1\SC(=S)N(c2ccc(C(=O)O)cc2)C1=O, the T/C [1] was 125 % of control, the T/C [2] was 146 % of control and the survivor count [2] was 10 of 10.

Cc1nc(N)nc(N)c1-c1ccc(Cl)c(Cl)c1 was tested, and the survivor count [4] was 12 of 12.

With O=C1c2ccccc2C(=O)c2c(NCCNCCO)ccc(NCCNCCO)c21 the T/C (dose: 0.5 mg/kg/injection, schedule: Q01DX009 (ip), vehicle: saline) was 127 % of control, the T/C (dose: 2.0 mg/kg/injection, schedule: Q02DX009 (ip), vehicle: saline) was 138 % of control and the survivor count (dose: 4.0 mg/kg/injection, schedule: Q02DX009 (ip), vehicle: Klucel (hydroxypropylcellulose) (HPC)) was 10 of 10. The survivor count (dose: 4.0 mg/kg/injection, schedule: Q02DX009 (ip), vehicle: water) was 10 of 10, the survivor count (dose: 8.0 mg/kg/injection, schedule: Q02DX009 (ip), vehicle: Klucel (hydroxypropylcellulose) (HPC)) was 10 of 10 and the survivor count (dose: 8.0 mg/kg/injection, schedule: Q02DX009 (ip), vehicle: water) was 10 of 10. For the same compound, the survivor count [4] was 10 of 10, the survivor count (dose: 16.0 mg/kg/injection, schedule: Q02DX009 (ip), vehicle: saline) was 10 of 10 and the survivor count (dose: 20.0 mg/kg/injection, schedule: Q01DX009 (ip), vehicle: Klucel (hydroxypropylcellulose) (HPC)) was 10 of 10. For the same compound, the survivor count (dose: 30.0 mg/kg/injection, schedule: Q01DX009 (ip), vehicle: Klucel (hydroxypropylcellulose) (HPC)) was 10 of 10, the survivor count (dose: 32.0 mg/kg/injection, schedule: Q01DX009 (ip), vehicle: Klucel (hydroxypropylcellulose) (HPC)) was 10 of 10 and the survivor count (dose: 32.0 mg/kg/injection, schedule: Q01DX009 (ip), vehicle: saline) was 10 of 10. For the same compound, the survivor count (dose: 32.0 mg/kg/injection, schedule: Q02DX009 (ip), vehicle: Klucel (hydroxypropylcellulose) (HPC)) was 10 of 10, the survivor count (dose: 32.0 mg/kg/injection, schedule: Q02DX009 (ip), vehicle: saline) was 10 of 10 and the survivor count (dose: 32.0 mg/kg/injection, schedule: Q02DX009 (ip), vehicle: water) was 10 of 10. The survivor count (dose: 64.0 mg/kg/injection, schedule: Q01DX009 (ip), vehicle: saline) was 6 of 10, the survivor count (dose: 64.0 mg/kg/injection, schedule: Q02DX009 (ip), vehicle: Klucel (hydroxypropylcellulose) (HPC)) was 10 of 10 and the survivor count (dose: 64.0 mg/kg/injection, schedule: Q02DX009 (ip), vehicle: saline) was 9 of 10. For the same compound, the survivor count (dose: 64.0 mg/kg/injection, schedule: Q02DX009 (ip), vehicle: water) was 10 of 10, the survivor count (dose: 64.0 mg/kg/injection, schedule: Q04DX003 (ip), vehicle: Klucel (hydroxypropylcellulose) (HPC)) was 9 of 9 and the survivor count (dose: 110.0 mg/kg/injection, schedule: Q01DX001 (ip), vehicle: Klucel (hydroxypropylcellulose) (HPC)) was 10 of 10. For the same compound, the survivor count (dose: 128.0 mg/kg/injection, schedule: Q02DX009 (ip), vehicle: Klucel (hydroxypropylcellulose) (HPC)) was 8 of 10 and 9 of 10, the survivor count (dose: 128.0 mg/kg/injection, schedule: Q02DX009 (ip), vehicle: water) was 4 of 10 and 7 of 10 and the survivor count (dose: 165.0 mg/kg/injection, schedule: Q01DX001 (ip), vehicle: Klucel (hydroxypropylcellulose) (HPC)) was 9 of 10. The survivor count (dose: 960.0 mg/kg/injection, schedule: Q04DX003 (ip), vehicle: Klucel (hydroxypropylcellulose) (HPC)) was 10 of 10.

Nc1ncnc2c1ccn2C1OC(CO)C(O)C1O (stereo not given) was tested, and the survivor count (dose: 2.0 mg/kg/injection, schedule: Q01DX009 (ip), vehicle: Klucel (hydroxypropylcellulose) (HPC)) was 9 of 10, the survivor count (dose: 2.0 mg/kg/injection, schedule: Q01DX009 (ip), vehicle: saline) was 10 of 10 and the survivor count (dose: 4.0 mg/kg/injection, schedule: Q01DX009 (ip), vehicle: Klucel (hydroxypropylcellulose) (HPC)) was 7 of 10. For the same compound, the survivor count (dose: 4.0 mg/kg/injection, schedule: Q01DX009 (ip), vehicle: saline) was 9 of 10, the survivor count (dose: 8.0 mg/kg/injection, schedule: Q01DX009 (ip), vehicle: saline) was 5 of 10 and the survivor count (dose: 16.0 mg/kg/injection, schedule: Q01DX009 (ip), vehicle: saline) was 0 of 10.

In the case of O=NN(CCCl)C(=O)NCCO, the survivor count (dose: 7.2 mg/kg/injection, schedule: Q01DX007 (ip), vehicle: water) was 3 of 10 on day 55, the survivor count (dose: 12.0 mg/kg/injection, schedule: Q01DX007 (ip), vehicle: water) was 3 of 10 on day 55 and the survivor count (dose: 20.0 mg/kg/injection, schedule: Q01DX007 (ip), vehicle: water) was 1 of 10 on day 55.

With Cn1c(=O)[nH]c2nncnc2c1=O the T/C (dose: 1.56 mg/kg/injection, schedule: Q01DX009 (ip), vehicle: water) was 125 and 133 % of control and the T/C (dose: 6.25 mg/kg/injection, schedule: Q01DX009 (ip), vehicle: water) was 144 % of control.

O=c1n(CC2CO2)c(=O)n(CC2CO2)c(=O)n1CC1CO1 (stereo not given) was tested, and the T/C (dose: 30.0 mg/kg/injection, schedule: Q01DX011 (ip), vehicle: saline) was 136 % of control.
